Data from patent publication US20220227846A1.
No constants are given. Whether binding was seen depends on the method and setting. Some results given as binding are weak or reduced against the parent protein; the word gives no strength.

Sequences of proteins named here, by UniProt entry; tags and fusion partners are left off. A change or cut given only in a name is not applied to a line headed by its entry. A line that says so, or that is headed by a name, gives the form on record, which may keep a tag or linker.
tau paired helical filaments (TAU PHF) isolated from AD brain homogenates (P10636, form named): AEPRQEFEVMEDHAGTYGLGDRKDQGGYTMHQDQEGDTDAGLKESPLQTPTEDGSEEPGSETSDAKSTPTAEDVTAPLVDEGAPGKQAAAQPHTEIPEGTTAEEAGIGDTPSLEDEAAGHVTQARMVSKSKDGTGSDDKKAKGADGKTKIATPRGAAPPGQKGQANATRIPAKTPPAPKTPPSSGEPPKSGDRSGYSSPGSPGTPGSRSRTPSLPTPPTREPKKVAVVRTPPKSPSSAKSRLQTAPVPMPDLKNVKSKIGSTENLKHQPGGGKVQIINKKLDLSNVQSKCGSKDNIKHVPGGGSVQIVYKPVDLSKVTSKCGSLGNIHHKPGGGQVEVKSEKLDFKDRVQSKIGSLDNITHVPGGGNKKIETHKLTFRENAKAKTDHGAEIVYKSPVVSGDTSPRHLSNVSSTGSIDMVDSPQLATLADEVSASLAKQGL

Molecular target: tau paired helical filaments (TAU PHF) isolated from AD brain homogenates (UniProt P10636)
Assay: SPR, antibody at 66.7 nM

B1: ALZ.4G1 (antibody, V domains shown)
VH: EEHLVESGGALVQPGGSLRLSCEASGFTFRSYWMTWVRQAPGKGLEWLANIKQDGSDYYYVDSVKGRFTISRDNAKNTLYLQMNNLRADDTAVYFCARDARYRDTTWPQYYFYYFMDVWGKGTTVTVSS
VL: DIQLTQSPSSLSASIGDRVTVTCRASQSISNYLNWYQQKPGKAPKLLIYAASNLHTGVPSRFSGSGSGTHFTLTISSLQPEDFATYYCQLSYNNPRTFGPGTTVDIR
binding: binds
